US20210079095A1
Results are given in words; binding and its absence hold for the method and conditions named. Binding calls can cover weak binding; strength is not graded here.

Assays:
[1] = molecular target: ovine PD-L1 (endogenous, in ovine brain lesion tissue) (ovine); assay: immunohistochemical staining of a brain lesion of ovine listeriosis (FIG. 6)
[2] = molecular target: canine PD-L1 (endogenous, in canine tumor tissue sections) (canine); assay: immunohistochemical staining of canine oral malignant melanoma, mammary adenocarcinoma, histiocytic sarcoma and diffuse large B-cell lymphoma (FIG. 14)
[3] = molecular target: canine PD-L1 (endogenous, in canine tumor tissue sections) (canine); assay: immunohistochemical staining of six canine tumor types (FIGS. 12 and 13)
[4] = molecular target: canine PD-L1-EGFP (on canine PD-L1-EGFP expressing cells) (canine); assay: flow cytometry on transfected COS-7 cells, 10 µg/ml antibody (FIG. 1)
[5] = molecular target: bovine PD-L1 (endogenous, in bovine ileal tissue) (bovine); assay: immunohistochemical staining of bovine ileal lesions (FIG. 16)
[6] = molecular target: canine PD-L1 (endogenous, in canine tumor tissue sections) (canine); assay: immunohistochemical staining of canine melanoma (FIG. 3)
[7] = molecular target: canine PD-L1 (endogenous, in canine tumor tissue sections) (canine); assay: immunohistochemical staining of canine skin squamous cell carcinoma, nasal adenocarcinoma and transitional cell carcinoma (FIG. 12)
[8] = molecular target: bovine PD-L1-EGFP (on bovine PD-L1-EGFP expressing cells) (bovine); assay: flow cytometry on stably expressing CHO-DG44 cells (FIG. 15)
[9] = molecular target: porcine PD-L1 (endogenous, in porcine infected tissue) (porcine); assay: immunohistochemical staining, case of porcine circovirus type 2 infection (FIG. 7, left)
[10] = molecular target: bovine PD-L1 (endogenous, in bovine ileal tissue) (bovine); assay: immunohistochemical staining of bovine ileal lesions, 400-fold dilution (FIG. 16)
[11] = molecular target: canine PD-L1 (endogenous, in canine tumor tissue sections) (canine); assay: immunohistochemical staining of canine anal sac gland carcinoma, soft tissue sarcoma and osteosarcoma (FIG. 13)
[12] = molecular target: porcine PD-L1 (endogenous, in porcine infected tissue) (porcine); assay: immunohistochemical staining, case of porcine mycoplasma pneumonia (FIG. 7, right)
[13] = molecular target: canine PD-L1 (endogenous, in canine tumor tissue sections) (canine); assay: immunohistochemical staining of canine melanoma, 400-fold dilution (FIG. 3)
[14] = molecular target: bovine PD-L1-EGFP (on bovine PD-L1-EGFP expressing cells) (bovine); assay: flow cytometry on stably expressing CHO-DG44 cells
[15] = molecular target: canine PD-L1-EGFP (on canine PD-L1-EGFP expressing cells) (canine); assay: flow cytometry on stably expressing CHO-DG44 cells (FIG. 11)
[16] = molecular target: canine PD-L1 (endogenous, in canine tumor tissue sections) (canine); assay: immunohistochemical staining of canine melanoma, lymphoma, osteosarcoma and renal cell carcinoma

Measured: binding

B1: rat anti-bovine PD-L1 antibody 6C11-3A11 (antibody, IgG2a, V domains shown)
VH: QVKLLQSGAALVKPGDSVKMSCKASGYTFTDYIIHWVKQSHGKSLEWIGYINPDSGGNNYNEKFKSKATLTVDKSSSTAYMEFSRLTSEDSAIYYCARGITMMVVISHWKFDFWGPGTMVTVSS
VL: DVQMTQSPSNLAASPGESVSINCKASKSISKYLAWYQQKPGKANKLLIYSGSTLQSGTPSRFSGSGSGTDFTLTIRNLEPEDFGLYYCQQHNEYPLTFGSGTKLEIKR
binds: all assays above
